The target in assay [1] is Toll‐like receptor 4 (mouse, endogenous) (mouse (endogenous in heart tissue)) (UniProt Q9QUK6). As to the kind of experiment: co-IP; heart tissue lysates of db/m and db/db mice (vehicle or Sch B 20 or 40 mg/kg for 8 weeks); TLR4 immunoprecipitated, MD2, TRIF and MyD88 blotted.
Assay [2] has the same target. In words: co-IP; heart tissue lysates of control and STZ-induced type 1 diabetic C57BL/6 mice; TLR4 immunoprecipitated, MD2, TRIF and MyD88 blotted.
The target of assay [3] is T1, Toll‐like receptor 4 (rat, endogenous) (rat (endogenous in H9C2 and rat primary cardiomyocytes)) (UniProt Q9QX05).
T1 sequence: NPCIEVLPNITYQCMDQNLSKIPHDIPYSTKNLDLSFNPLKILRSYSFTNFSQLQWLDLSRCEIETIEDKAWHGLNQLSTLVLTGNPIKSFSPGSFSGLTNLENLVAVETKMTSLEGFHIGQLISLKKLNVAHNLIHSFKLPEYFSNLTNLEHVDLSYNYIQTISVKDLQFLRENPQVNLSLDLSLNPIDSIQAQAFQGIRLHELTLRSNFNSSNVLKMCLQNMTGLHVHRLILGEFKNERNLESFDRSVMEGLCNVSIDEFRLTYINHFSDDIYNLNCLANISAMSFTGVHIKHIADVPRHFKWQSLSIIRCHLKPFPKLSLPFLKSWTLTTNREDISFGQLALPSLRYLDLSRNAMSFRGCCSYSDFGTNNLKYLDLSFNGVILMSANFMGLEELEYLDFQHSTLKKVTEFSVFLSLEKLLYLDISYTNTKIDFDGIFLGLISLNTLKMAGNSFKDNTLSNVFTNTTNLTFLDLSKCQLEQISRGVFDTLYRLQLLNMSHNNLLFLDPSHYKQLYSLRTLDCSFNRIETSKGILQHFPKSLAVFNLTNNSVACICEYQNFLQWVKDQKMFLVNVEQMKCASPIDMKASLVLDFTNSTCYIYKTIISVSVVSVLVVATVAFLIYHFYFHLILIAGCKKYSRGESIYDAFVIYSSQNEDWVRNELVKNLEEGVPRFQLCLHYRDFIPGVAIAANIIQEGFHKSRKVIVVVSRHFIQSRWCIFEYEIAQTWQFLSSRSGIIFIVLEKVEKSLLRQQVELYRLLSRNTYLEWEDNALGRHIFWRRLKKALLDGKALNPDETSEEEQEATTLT
As to the kind of experiment: co-IP; lysates of H9C2 cells (control, HG 33 mM glucose 30 min, with or without 10 uM Sch B pretreatment 1 h); TLR4 immunoprecipitated and TRIF, MyD88 blotted; MD2 immunoprecipitated and TLR4 blotted; TLR2-MyD88 co-IP (Figure S5); protein G-Sepharose.

The chains behind the UniProt entries cited, without tags or fusion partners. Residues count along the entry.
UniProt Q9QUK6, residues 26-835: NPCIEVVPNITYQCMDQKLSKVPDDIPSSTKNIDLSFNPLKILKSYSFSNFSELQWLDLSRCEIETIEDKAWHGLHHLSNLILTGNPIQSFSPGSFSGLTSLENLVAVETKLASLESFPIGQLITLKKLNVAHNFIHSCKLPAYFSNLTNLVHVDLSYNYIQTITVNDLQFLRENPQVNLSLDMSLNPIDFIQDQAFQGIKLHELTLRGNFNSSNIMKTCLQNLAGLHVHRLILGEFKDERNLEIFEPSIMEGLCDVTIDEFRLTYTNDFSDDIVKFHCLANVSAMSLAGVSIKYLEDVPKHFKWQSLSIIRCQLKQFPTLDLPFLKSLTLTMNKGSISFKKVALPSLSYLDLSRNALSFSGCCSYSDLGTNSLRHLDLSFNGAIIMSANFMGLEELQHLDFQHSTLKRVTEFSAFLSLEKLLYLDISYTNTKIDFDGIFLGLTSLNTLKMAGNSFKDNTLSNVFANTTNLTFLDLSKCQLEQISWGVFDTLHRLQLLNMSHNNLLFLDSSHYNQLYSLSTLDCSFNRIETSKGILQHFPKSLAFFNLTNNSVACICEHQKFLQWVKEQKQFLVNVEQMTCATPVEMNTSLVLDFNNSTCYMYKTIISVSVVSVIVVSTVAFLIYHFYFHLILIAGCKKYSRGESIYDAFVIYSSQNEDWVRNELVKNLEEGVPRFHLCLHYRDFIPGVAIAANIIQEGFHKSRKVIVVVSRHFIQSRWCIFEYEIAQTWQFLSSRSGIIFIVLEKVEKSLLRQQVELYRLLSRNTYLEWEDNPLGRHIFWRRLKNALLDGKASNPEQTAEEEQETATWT
UniProt P22366: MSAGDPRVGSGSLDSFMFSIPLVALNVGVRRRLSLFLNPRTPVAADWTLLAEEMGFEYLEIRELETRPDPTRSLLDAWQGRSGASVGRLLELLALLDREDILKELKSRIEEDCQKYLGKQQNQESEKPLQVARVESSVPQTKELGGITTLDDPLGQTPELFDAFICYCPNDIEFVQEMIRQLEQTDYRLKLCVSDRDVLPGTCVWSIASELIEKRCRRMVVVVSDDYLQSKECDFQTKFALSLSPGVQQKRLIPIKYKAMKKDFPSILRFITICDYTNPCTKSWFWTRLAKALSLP
UniProt Q6Y1S1: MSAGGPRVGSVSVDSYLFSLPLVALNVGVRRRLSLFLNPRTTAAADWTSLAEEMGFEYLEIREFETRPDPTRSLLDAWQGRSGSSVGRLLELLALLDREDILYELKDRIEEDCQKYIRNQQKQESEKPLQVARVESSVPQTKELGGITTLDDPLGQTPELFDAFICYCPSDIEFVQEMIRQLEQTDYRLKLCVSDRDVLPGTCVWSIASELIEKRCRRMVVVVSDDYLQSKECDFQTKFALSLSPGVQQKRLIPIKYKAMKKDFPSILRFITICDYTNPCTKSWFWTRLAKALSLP

In assay [4] the target is T1, Toll‐like receptor 4 (rat, endogenous) (rat (endogenous in H9C2 and rat primary cardiomyocytes)). In words: co-IP; lysates of rat primary cardiomyocytes (control, HG 30 min, with or without 10 uM Sch B pretreatment 1 h); MD2/TLR4, TLR4/TRIF and TLR4/MyD88 complexes; protein G-Sepharose.

Results are given in words; binding and its absence hold for the method and conditions named. In cells and extracts the contact can be indirect. Some entries that bind do so weakly or less than the wild type.

In paper PMC9631063, “Schisandrin B Attenuates Diabetic Cardiomyopathy by Targeting MyD88 and Inhibiting MyD88‐Dependent Inflammation” (Advanced Science, 2022) one finds binding data, which are given here for 4 molecules.

As for “myeloid differentiation primary response 88 (mouse, endogenous) (from UniProt P22366 1-296)”, the binding entry in assay [1] and in assay [2] was “binds” throughout.

“myeloid differentiation primary response 88 (rat, endogenous) (from UniProt Q6Y1S1 1-296)”: the binding result in assay [3] and in assay [4] was “binds” throughout.

B1: TIR‐domain‐containing adapter‐inducing interferon‐β (mouse, endogenous) (protein, UniProt Q80UF7 1-732)
chain: MDNPGPSLRGAFGILGALERDRLTHLKHKLGSLCSGSQESKLLHAMVLLALGQDTEARVSLESLKMNTVAQLVAHQWADMETTEGPEEPPDLSWTVARLYHLLAEENLCPASTRDMAYQVALRDFASQGDHQLGQLQNEAWDRCSSDIKGDPSGFQPLHSHQGSLQPPSASPAVTRSQPRPIDTPDWSWGHTLHSTNSTASLASHLEISQSPTLAFLSSHHGTHGPSKLCNTPLDTQEPQLVPEGCQEPEEISWPPSVETSVSLGLPHEISVPEVSPEEASPILPDALAAPDTSVHCPIECTELSTNSRSPLTSTTESVGKQWPITSQRSPQVPVGDDSLQNTTSSSPPAQPPSLQASPKLPPSPLSSASSPSSYPAPPTSTSPVLDHSETSDQKFYNFVVIHARADEQVALRIREKLETLGVPDGATFCEEFQVPGRGELHCLQDAIDHSGFTILLLTASFDCSLSLHQINHALMNSLTQSGRQDCVIPLLPLECSQAQLSPDTTRLLHSIVWLDEHSPIFARKVANTFKTQKLQAQRVRWKKAQEARTLKEQSIQLEAERQNVAAISAAYTAYVHSYRAWQAEMNKLGVAFGKNLSLGTPTPSWPGCPQPIPSHPQGGTPVFPYSPQPPSFPQPPCFPQPPSFPQPPSFPLPPVSSPQSQSFPSASSPAPQTPGPQPLIIHHAQMVQLGVNNHMWGHTGAQSSDDKTECSENPCMGPLTDQGEPLLETPE
On to B1, for which the binding result in assay [1] and in assay [2] was “binds” throughout.

B2: myeloid differentiation factor 2 (mouse, endogenous) (protein, UniProt Q9JHF9 19-160)
chain: EKQQWFCNSSDAIISYSYCDHLKFPISISSEPCIRLRGTNGFVHVEFIPRGNLKYLYFNLFISVNSIELPKRKEVLCHGHDDDYSFCRALKGETVNTSIPFSFEGILFPKGHYRCVAEAIAGDTEEKLFCLNFTIIHRRDVN
Turning to B2, the binding entry in assay [1] and in assay [2] was “binds” each time.
